Measurements reported in PubChem BioAssay AID743454 (Peter MacCallum Cancer Centre, 2014)

- Screen: 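Knock-downs lowering viability or raising caspase 3/7 activity in vorinostat-treated resistant cells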 (primary screen)
- Cell system: human HCT116-VR colon cancer cells, selected for vorinostat resistance
- Knock-down reagent: siRNA pool against human genes, 40 nM siRNA pool
- Time to read-out: vorinostat for 24 h, read-out about 72 h after transfection
- Treatment: vorinostat at 2.5 µM final
- Measurement: 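Cell viability by CellTiter-Fluor and caspase 3/7 activity by luminescence, each scaled to mock wells per plate, duplicates averaged, then robust z-scored over all plates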
- Reading the numbers: viability robust z-score: higher = more viable cells than screen typical; caspase robust z-score: higher = more caspase 3/7 activity than screen typical
- Rule for the call: 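Hits are knock-downs in viability class RV1/RV2 or caspase class CA1/CA2, excluding ones that killed cells in the no-drug cell-count arm; hits then retested with single siRNAs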
The whole screen tested about 18,000 reagents; this is a random part of them. 450 of all reagents (2.5%) were called active. 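Single biological run; no consistent viability z cut-off exists, so the class columns, not z-scores, define the calls.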

gene	viability hit class	caspase hit class	viability robust z-score	caspase robust z-score	activity call
TMEM203	no change	CA1 (caspase activation)	-0.7	6.75	active
MRPL27	no change	no change	1.3	1.07	inactive
ABCA9	no change	no change	1.24	0.22	inactive
DBF4	no change	no change	0.2	-0.38	inactive
SMARCD1	no change	no change	-1.19	0.63	inactive
HEATR1	no change	no change	-1.11	0.26	inactive
WDCP	no change	no change	0.48	0.24	inactive
SPINDOC	no change	no change	-0.48	0.16	inactive
KRTAP9-3	no change	no change	0.72	-0.84	inactive
CPAP	no change	no change	-0.77	-0.14	inactive
NBPF9	no change	no change	0.1	-1.16	inactive
LYSMD4	no change	no change	-0.68	-0.52	inactive
KLF2	no change	no change	-0.71	-0.15	inactive
NFKB1	no change	no change	0.51	-1.31	inactive
IL12RB1	no change	no change	0.52	0.37	inactive
KCNMB3	no change	CA2 (caspase activation)	-2.74	5.41	active
IHO1	no change	no change	0.5	0.7	inactive
ITIH1	no change	no change	0.06	-0.99	inactive
CDK20	no change	no change	-1.14	-0.58	inactive
ERF	no change	no change	-0.21	-0.58	inactive
CAVIN2	no change	no change	0.99	-0.32	inactive
SORCS3	no change	no change	0.05	-1.08	inactive
NRP1	no change	no change	2.02	0.03	inactive
OR2AK2	no change	no change	1.09	-0.7	inactive
ACAP2	no change	no change	1.52	-0.13	inactive
PPDPFL	no change	no change	-0.01	-0.44	inactive
CSRNP2	no change	no change	-0.02	0.6	inactive
SLC34A2	no change	no change	0.8	-0.32	inactive
YY2	no change	no change	1.22	-0.52	inactive
CSTF1	no change	no change	0.42	-0.59	inactive
PTGES2	no change	no change	0.42	0.38	inactive
NEU3	no change	no change	-1.14	-0.16	inactive
KLF13	no change	no change	0.62	0.82	inactive
ATP5PF	no change	no change	-0.08	1.11	inactive
IFT46	no change	no change	0.51	0.13	inactive
MAN2A1	no change	no change	0.55	0.1	inactive
PLRG1	no change	no change	-1.79	0.32	inactive
PITX2	no change	no change	-0.52	0.56	inactive
CTBP2	no change	no change	1.38	0.02	inactive
MICB	no change	no change	-0.34	2.4	inactive
SUCO	no change	no change	0.25	-0.9	inactive
JAML	no change	no change	0.3	-0.38	inactive
GTPBP6	no change	no change	0.52	-0.12	inactive
IFT88	no change	no change	0.88	-0.44	inactive
SLC10A4	no change	no change	0.58	1.69	inactive
TCFL5	no change	no change	1.2	1.34	inactive
HLA-A	no change	no change	1.23	0.21	inactive
OLFM1	no change	no change	-0.23	-0.99	inactive
ZNF26	no change	no change	0.23	-0.82	inactive
GUCA2A	no change	no change	0.68	-0.88	inactive
MUC1	no change	no change	-0.06	3.16	inactive
HOXC13	no change	no change	-0.55	0.38	inactive
RBMX2	no change	no change	-0.61	0.62	inactive
NGLY1	no change	no change	1.58	-0.64	inactive
OR5L1	no change	no change	-0.55	4.12	inactive
OR10J5	no change	no change	0.64	-0.38	inactive
TTBK2	no change	no change	-0.18	1.14	inactive
OR51B6	no change	no change	0.8	-0.21	inactive
PLEKHS1	no change	no change	-0.48	0.33	inactive
ENPP6	no change	no change	-0.16	0.05	inactive
THEM4	no change	no change	0.53	-0.14	inactive
TMEM156	no change	no change	-0.38	-0.34	inactive
CAPN2	no change	no change	-2.92	0.7	inactive
CLCC1	no change	no change	-0.21	0.4	inactive
PHYH	no change	no change	-0.32	-0.76	inactive
DEFB118	no change	no change	0.18	-0.59	inactive
OR4C16	no change	no change	0.16	-0.03	inactive
PPP1R3C	no change	no change	0.52	0.11	inactive
MNT	no change	no change	-1.37	2	inactive
MBD4	no change	no change	1.73	-0.44	inactive
NICN1	no change	no change	-0.08	-0.85	inactive
DLL3	no change	no change	-1.1	0.24	inactive
SMYD4	no change	no change	-0.08	-0.39	inactive
